From paper PMC9069384
No constants are given. Whether binding was seen depends on the method and setting. In cells and extracts the contact can be indirect. Some results given as binding are weak or reduced against the parent protein; the word gives no strength. Where a sequence is shown, tags or fusion partners need not be part of it.

Molecular target: T1, Myc‐RNF125 (UniProt Q96EQ8)
T1 sequence: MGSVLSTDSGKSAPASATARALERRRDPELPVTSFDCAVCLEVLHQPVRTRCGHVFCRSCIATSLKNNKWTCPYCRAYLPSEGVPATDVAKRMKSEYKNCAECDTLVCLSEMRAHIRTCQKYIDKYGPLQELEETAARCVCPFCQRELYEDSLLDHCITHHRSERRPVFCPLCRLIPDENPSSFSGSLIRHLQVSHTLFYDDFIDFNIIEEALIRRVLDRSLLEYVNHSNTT
Test: co-IP; anti-Myc immunoprecipitation from lysates of 293T cells transfected with Flag-RIG-1, Myc-RNF125 and circREEP3

B1: Flag‐RIG‐1 (protein, UniProt O95786 1-925)
chain: MTTEQRRSLQAFQDYIRKTLDPTYILSYMAPWFREEEVQYIQAEKNNKGPMEAATLFLKFLLELQEEGWFRGFLDALDHAGYSGLYEAIESWDFKKIEKLEEYRLLLKRLQPEFKTRIIPTDIISDLSECLINQECEEILQICSTKGMMAGAEKLVECLLRSDKENWPKTLKLALEKERNKFSELWIVEKGIKDVETEDLEDKMETSDIQIFYQEDPECQNLSENSCPPSEVSDTNLYSPFKPRNYQLELALPAMKGKNTIICAPTGCGKTFVSLLICEHHLKKFPQGQKGKVVFFANQIPVYEQQKSVFSKYFERHGYRVTGISGATAENVPVEQIVENNDIIILTPQILVNNLKKGTIPSLSIFTLMIFDECHNTSKQHPYNMIMFNYLDQKLGGSSGPLPQVIGLTASVGVGDAKNTDEALDYICKLCASLDASVIATVKHNLEELEQVVYKPQKFFRKVESRISDKFKYIIAQLMRDTESLAKRICKDLENLSQIQNREFGTQKYEQWIVTVQKACMVFQMPDKDEESRICKALFLYTSHLRKYNDALIISEHARMKDALDYLKDFFSNVRAAGFDEIEQDLTQRFEEKLQELESVSRDPSNENPKLEDLCFILQEEYHLNPETITILFVKTRALVDALKNWIEGNPKLSFLKPGILTGRGKTNQNTGMTLPAQKCILDAFKASGDHNILIATSVADEGIDIAQCNLVILYEYVGNVIKMIQTRGRGRARGSKCFLLTSNAGVIEKEQINMYKEKMMNDSILRLQTWDEAVFREKILHIQTHEKFIRDSQEKPKPVPDKENKKLLCRKCKALACYTADVRVIEECHYTVLGDAFKECFVSRPHPKPKQFSSFEKRAKIFCARQNCSHDWGIHVKYKTFEIPVIKIESFVVEDIATGVQTLYSKWKDFHFEKIPFDPAEMSK
In the case of B1, the binding is reported as “binds”.
